The test system of data set [1] is xanthurenic acid binding site(s). Kind of data set: [3H]-XA binding to synaptic membranes in the presence of copper ions. Further details: species or system rat.
The test system is the same in data set [2]. Nature of the data set: [3H]-XA binding to synaptic membranes, without ions. Further details: species or system rat.

For `O=C(O)c1cc(O)c2cccc(O)c2n1` [XA, xanthurenic acid], in data set [1], the Bmax is 581.8±33 pmol/mg of protein and the “optimum pH for xanthurenic acid binding” value is 6.4–6.5. Moreover, in data set [2], the Bmax was 6.9±1.2 pmol/mg of protein and the “optimum pH for xanthurenic acid binding” value is listed as 7.4–7.5.
